# Assay results reported in the supplement of paper PMC12067093, “Discovery and optimisation of a covalent ligand for TRIM25 and its application to targeted protein ubiquitination” (Chemical Science, 2025).
# By UniProt entry, the sequences of proteins in these tests, tags left out. Where a name states a change or a piece, a line headed by the entry shows the natural chain unless it says otherwise.
# UniProt Q86UX7, whole entry, looked up: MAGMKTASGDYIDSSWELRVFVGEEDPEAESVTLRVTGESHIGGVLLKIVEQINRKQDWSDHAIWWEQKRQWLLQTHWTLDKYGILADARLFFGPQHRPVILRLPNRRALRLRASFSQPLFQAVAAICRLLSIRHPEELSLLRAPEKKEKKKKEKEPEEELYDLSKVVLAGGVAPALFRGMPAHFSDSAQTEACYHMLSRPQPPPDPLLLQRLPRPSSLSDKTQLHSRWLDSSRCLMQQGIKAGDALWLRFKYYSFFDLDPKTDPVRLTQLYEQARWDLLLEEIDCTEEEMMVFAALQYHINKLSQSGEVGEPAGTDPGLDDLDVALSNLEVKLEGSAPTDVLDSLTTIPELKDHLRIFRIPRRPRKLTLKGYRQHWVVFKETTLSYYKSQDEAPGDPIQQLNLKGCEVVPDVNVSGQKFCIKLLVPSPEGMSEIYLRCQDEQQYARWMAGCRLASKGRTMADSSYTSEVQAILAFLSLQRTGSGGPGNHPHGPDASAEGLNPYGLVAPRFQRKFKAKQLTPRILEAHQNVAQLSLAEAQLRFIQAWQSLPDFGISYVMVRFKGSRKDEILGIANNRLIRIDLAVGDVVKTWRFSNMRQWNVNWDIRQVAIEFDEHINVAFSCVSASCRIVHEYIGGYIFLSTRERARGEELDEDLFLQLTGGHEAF
# UniProt Q9NXK8: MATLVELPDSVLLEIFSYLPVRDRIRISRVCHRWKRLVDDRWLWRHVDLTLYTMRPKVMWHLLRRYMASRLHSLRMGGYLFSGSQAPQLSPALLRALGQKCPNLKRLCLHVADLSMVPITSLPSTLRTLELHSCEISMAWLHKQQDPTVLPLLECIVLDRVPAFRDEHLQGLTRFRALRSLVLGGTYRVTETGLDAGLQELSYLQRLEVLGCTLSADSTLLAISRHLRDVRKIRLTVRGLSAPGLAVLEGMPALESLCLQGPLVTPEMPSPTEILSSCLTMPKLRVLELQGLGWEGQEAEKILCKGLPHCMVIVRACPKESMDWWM
# UniProt P37268: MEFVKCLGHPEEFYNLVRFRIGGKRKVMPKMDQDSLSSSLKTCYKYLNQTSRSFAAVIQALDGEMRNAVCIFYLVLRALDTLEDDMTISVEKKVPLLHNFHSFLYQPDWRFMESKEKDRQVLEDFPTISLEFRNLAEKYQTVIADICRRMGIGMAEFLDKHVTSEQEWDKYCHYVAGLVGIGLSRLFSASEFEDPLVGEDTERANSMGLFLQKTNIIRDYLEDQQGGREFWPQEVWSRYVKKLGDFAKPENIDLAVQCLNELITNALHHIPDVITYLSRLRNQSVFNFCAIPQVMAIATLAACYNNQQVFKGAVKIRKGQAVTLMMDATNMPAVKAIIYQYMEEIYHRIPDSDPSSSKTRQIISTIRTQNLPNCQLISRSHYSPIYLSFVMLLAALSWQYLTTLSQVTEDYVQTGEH
# UniProt Q96K12: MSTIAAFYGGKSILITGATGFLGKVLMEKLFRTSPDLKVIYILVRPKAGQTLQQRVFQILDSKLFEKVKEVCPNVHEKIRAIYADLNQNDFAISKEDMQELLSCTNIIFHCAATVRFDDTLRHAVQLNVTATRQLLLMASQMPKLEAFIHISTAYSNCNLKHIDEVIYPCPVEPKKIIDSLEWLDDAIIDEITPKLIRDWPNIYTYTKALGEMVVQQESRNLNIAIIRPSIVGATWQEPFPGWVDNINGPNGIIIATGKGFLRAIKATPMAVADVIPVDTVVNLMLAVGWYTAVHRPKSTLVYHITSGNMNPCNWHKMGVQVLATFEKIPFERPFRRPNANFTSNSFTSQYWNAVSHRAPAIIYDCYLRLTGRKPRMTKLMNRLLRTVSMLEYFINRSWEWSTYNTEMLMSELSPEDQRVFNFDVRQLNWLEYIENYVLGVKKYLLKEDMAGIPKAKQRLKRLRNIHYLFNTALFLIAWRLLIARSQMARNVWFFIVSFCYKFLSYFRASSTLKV
# UniProt P14324: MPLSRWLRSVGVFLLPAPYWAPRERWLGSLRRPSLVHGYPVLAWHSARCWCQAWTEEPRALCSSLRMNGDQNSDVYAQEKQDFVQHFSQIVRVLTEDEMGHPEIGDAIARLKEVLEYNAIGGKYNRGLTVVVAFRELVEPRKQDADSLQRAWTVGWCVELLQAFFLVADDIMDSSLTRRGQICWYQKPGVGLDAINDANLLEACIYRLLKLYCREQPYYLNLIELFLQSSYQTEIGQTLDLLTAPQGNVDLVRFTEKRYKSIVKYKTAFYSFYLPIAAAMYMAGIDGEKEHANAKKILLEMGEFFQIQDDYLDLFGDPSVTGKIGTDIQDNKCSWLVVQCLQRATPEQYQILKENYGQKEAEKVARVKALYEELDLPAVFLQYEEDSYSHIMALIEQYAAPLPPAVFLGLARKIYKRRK
# UniProt Q5VWN6: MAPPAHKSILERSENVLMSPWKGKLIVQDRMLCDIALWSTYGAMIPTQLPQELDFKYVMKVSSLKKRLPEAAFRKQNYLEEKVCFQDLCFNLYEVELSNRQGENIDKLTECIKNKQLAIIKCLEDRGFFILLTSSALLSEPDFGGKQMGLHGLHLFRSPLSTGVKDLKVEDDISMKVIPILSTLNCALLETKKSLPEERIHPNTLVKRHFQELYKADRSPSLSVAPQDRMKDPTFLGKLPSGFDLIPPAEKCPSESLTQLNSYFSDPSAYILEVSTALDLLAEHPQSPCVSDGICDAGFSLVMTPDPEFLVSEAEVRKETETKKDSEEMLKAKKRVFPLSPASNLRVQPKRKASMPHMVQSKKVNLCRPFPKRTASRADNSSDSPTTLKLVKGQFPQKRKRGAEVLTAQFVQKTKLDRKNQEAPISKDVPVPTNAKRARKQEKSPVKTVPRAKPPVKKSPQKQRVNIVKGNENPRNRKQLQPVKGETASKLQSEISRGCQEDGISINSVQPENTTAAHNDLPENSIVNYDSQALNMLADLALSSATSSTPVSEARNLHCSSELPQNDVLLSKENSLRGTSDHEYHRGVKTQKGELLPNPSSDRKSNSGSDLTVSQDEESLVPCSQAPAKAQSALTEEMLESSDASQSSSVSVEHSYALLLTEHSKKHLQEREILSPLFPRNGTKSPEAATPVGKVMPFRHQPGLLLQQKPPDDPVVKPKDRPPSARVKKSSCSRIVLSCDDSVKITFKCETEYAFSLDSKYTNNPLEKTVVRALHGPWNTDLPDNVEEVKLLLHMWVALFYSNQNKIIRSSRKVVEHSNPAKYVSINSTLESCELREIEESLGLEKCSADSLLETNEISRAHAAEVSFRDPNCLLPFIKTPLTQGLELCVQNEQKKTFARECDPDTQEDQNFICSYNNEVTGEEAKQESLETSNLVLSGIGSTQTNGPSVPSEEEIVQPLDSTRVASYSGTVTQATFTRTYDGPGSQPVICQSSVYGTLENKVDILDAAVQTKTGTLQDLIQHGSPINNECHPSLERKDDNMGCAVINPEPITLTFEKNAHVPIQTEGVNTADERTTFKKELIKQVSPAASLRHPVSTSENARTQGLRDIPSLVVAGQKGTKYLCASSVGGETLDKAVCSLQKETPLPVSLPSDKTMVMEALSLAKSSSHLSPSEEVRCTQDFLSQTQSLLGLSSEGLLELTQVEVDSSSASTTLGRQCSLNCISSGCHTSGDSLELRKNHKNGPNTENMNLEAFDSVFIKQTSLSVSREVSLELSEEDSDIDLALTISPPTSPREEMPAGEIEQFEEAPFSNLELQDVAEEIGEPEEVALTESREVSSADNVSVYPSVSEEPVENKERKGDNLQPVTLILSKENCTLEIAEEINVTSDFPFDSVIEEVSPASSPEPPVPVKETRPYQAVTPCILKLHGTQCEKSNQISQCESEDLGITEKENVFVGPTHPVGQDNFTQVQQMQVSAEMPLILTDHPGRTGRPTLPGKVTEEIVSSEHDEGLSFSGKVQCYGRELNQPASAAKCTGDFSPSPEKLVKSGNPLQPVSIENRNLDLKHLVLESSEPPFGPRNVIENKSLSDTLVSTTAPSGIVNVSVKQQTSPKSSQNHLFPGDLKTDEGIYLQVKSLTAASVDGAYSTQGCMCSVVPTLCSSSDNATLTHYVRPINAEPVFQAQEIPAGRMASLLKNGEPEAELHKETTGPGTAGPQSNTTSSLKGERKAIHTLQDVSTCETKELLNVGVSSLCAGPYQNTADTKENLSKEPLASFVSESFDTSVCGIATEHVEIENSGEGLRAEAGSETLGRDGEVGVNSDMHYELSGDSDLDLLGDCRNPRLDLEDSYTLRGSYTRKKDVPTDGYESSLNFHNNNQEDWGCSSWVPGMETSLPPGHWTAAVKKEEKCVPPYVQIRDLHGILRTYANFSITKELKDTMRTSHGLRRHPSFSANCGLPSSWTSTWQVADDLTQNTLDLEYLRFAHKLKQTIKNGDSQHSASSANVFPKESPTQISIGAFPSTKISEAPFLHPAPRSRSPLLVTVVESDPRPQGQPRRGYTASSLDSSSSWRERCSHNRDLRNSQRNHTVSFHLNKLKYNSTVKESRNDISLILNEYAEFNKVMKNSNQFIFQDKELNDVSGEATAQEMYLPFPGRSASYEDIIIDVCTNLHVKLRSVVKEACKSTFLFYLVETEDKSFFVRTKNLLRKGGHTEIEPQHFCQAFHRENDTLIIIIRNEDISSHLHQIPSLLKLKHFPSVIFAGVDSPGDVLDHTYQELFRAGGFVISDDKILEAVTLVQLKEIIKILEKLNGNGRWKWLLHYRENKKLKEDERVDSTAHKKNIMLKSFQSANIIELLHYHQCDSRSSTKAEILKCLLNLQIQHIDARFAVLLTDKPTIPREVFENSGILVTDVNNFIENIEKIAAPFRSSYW
# UniProt Q9UK61: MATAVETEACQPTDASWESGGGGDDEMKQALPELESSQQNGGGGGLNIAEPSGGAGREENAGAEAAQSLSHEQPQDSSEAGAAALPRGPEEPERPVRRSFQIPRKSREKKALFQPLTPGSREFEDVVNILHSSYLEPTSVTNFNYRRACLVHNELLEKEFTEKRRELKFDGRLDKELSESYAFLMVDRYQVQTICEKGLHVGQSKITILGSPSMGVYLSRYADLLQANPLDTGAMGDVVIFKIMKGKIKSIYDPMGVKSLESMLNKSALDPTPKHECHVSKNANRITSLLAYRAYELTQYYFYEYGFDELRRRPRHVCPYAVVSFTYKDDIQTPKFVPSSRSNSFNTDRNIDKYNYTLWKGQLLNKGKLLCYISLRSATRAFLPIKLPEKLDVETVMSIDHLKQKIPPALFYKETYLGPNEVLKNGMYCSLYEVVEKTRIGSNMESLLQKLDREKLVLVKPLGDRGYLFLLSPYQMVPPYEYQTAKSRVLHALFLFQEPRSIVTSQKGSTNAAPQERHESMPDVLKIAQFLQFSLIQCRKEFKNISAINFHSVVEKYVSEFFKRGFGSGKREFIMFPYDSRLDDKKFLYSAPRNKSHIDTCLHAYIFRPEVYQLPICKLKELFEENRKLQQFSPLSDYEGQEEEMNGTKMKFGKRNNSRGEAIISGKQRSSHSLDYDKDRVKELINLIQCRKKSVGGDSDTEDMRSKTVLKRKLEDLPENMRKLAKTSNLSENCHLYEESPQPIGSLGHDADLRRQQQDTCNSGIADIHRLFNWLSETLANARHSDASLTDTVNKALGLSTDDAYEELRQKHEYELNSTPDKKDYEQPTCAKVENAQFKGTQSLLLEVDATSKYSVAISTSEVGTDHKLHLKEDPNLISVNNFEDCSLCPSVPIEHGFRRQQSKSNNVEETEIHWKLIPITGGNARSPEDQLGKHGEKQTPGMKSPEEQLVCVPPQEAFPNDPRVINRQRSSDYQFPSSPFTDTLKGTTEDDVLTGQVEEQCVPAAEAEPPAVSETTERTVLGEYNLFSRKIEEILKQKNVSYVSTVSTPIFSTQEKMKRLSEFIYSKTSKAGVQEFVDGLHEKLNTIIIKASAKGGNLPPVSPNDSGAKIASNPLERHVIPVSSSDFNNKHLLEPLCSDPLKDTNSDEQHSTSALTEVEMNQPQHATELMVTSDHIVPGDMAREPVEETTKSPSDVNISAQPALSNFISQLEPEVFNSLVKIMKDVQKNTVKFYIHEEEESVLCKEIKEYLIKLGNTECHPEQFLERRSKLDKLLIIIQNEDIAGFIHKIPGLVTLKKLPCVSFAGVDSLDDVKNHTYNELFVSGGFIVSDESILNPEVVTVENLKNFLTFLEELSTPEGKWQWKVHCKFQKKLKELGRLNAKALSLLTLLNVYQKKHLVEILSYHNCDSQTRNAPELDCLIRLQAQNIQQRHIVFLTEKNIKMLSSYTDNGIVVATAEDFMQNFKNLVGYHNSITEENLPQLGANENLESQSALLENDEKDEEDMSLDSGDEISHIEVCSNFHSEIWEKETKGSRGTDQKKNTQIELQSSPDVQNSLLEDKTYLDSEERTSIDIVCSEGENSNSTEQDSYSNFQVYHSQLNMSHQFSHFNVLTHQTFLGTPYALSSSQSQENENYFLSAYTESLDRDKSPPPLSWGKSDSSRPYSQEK
# The list shows a part of the results.
# Compound: Cc1cc(ccc1-c1ccccc1)C(=O)N1CCCN(CC1)C(=O)CCl [compound 10]
# Experiment: probe-labelled cysteine peptide fold change vs DMSO (competition) (log2 fold change); higher = less target engagement (more negative = stronger competition)
# Settings: THP-1, incubation time: 4 h
# 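Further: competitive profiling in live THP-1 cells: cysteine peptides tagged with an iodoacetamide desthiobiotin (IA-DTB) probe, intensity after compound treatment relative to DMSO-treated cells.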
Target,probe-labelled cysteine peptide fold change (10 µM),probe-labelled cysteine peptide fold change (50 µM)
FANCD2_Q9BXW9_1342_LLHHLCGHSK (UniProt Q9BXW9),-0.0383,-0.261
FBXO4_Q9UKT5_283_VCEVVDGFIYVANAEAHK (UniProt Q9UKT5),0.241,0.367
FGR_P09769_415_LIKDDEYNPCQGSK (UniProt P09769),-0.148,-0.205
FERMT3_Q86UX7_439_CQDEQQYAR (UniProt Q86UX7),0.208,0.187
FBXW11_Q9UKB1_100_MCHYQHGHINSYLK (UniProt Q9UKB1),0.234,-0.129
FBXL20_Q96IG2_135_TTDATCTSLSK (UniProt Q96IG2),-0.123,-0.077
FBXL12_Q9NXK8_155_QQDPTVLPLLECIVLDRVPAFR (UniProt Q9NXK8),0.484,0.391
FAM98C_Q17RN3_340_REDGGPQCWGR (UniProt Q17RN3),-0.342,-1.05
FDFT1_P37268_172_YCHYVAGLVGIGLSR (UniProt P37268),0.106,0.183
FAR2_Q96K12_313_STLVYHITSGNMNPCNWHK (UniProt Q96K12),-0.126,0.116
FAR2_Q96K12_111_EDMQELLSCTNIIFHCAATVR (UniProt Q96K12),0.00258,0.312
FDPS_P14324_183_RGQICWYQKPGVGLDAINDANLLEACIYR (UniProt P14324),-0.254,-0.375
FDPS_P14324_333_CSWLVVQCLQR (UniProt P14324),0.0389,-0.254
FASN_P49327_1471_CVLLSNLSSTSHVPEVDPGSAELQK (UniProt P49327),0.126,-0.108
FAM208B_Q5VWN6_873_AHAAEVSFRDPNCLLPFIK (UniProt Q5VWN6),-0.123,-0.15
FASN_P49327_212_LGMLSPEGTCK (UniProt P49327),-0.0812,-0.124
FES_P07332_785_LPCPELCPDAVFR (UniProt P07332),0.121,0.02
FANCI_Q9NVI1_156_GVLSGEECK (UniProt Q9NVI1),0.0902,0.316
FERMT2_Q96AC1_426_GCEVTPDVNISGQK (UniProt Q96AC1),-0.174,-0.013

Target,probe-labelled cysteine peptide fold change (10 µM),probe-labelled cysteine peptide fold change (50 µM)
FASN_P49327_2024_EACPELDYFVVFSSVSCGR (UniProt P49327),0.19,0.126
FBP1_P09467_282_LLYECNPMAYVMEK (UniProt P09467),-0.0204,-0.0851
FBXO45_P0C2W1_119_AFQHAFSTNDCSR (UniProt P0C2W1),0.105,0.171
FASN_P49327_1558_HAQPTCPGAQLCTVYYASLNFRDIMLATGK (UniProt P49327),-0.297,-0.657
FAT1_Q14517_574_INCEGTIPR (UniProt Q14517),-0.292,-0.116
FAM208A_Q9UK61_1245_FYIHEEEESVLCK (UniProt Q9UK61),-0.0476,-0.00682
FBXW8_Q8N3Y1_214_GAVSELEHVPDTVLCDVHSHDGVVIAGYTSGDVR (UniProt Q8N3Y1),0.0234,0.415
FERMT1_Q9BQL6_423_GCEVVPDVNVAGR (UniProt Q9BQL6),-0.308,-0.0654
FAM208B_Q5VWN6_847_CSADSLLETNEISR (UniProt Q5VWN6),-0.188,-0.119
FBXL12_Q9NXK8_155_QQDPTVLPLLECIVLDR (UniProt Q9NXK8),0.0367,0.365
FAM206A_Q9NX38_37_FCEDHCILQHSNR (UniProt Q9NX38),-0.00402,-0.338
FAM208A_Q9UK61_318_HVCPYAVVSFTYK (UniProt Q9UK61),-0.201,-0.698
FAR2_Q96K12_104+111_EDMQELLSCTNIIFHCAATVR (UniProt Q96K12),0.00346,0.391
FAM160A2_Q8N612_927_NAVYCAVIFPEFLK (UniProt Q8N612),0.403,0.217
FDX1_P10109_155_LGCQICLTK (UniProt P10109),-0.171,-0.586
FANCD2_Q9BXW9_117_NCLLSCER (UniProt Q9BXW9),-0.0291,-0.134
FBN2_P35556_941_CELDTACPR (UniProt P35556),0.316,0.197
FCHSD2_O94868_200_SECNSK (UniProt O94868),-0.126,-0.158
FANCL_Q9NW38_251_HPTMLPECFFLGADHVVKPLGIK (UniProt Q9NW38),-0.0209,-0.378
